Experimental data as given in the supplement of paper PMC3334620.
Whole data set: some 33,000 sequences, median “E-score (-0.5 to 0.5)” near -0.0034, cut for the highest 2% near 0.25. Some of the results follow.

Biological target: T1, Yap3 (UniProt P38749)
T1 sequence: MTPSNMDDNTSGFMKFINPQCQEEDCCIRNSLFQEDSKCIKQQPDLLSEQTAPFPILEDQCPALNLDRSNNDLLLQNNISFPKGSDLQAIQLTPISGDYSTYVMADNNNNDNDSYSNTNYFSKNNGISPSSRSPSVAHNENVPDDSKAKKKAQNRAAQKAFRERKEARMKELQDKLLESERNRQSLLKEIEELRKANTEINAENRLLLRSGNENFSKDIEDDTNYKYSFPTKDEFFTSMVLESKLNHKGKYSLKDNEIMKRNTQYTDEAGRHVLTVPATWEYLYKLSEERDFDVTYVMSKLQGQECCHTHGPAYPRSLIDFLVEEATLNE
Experiment: PBM E-score (8-mer binding enrichment) (E-score (-0.5 to 0.5)); higher = stronger / more preferred TF binding
Settings: protein concentration: 100 nM; construct: GST-full length
Outline: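 Using PURExpress in vitro transcription/translation, GST-tagged yeast transcription factors were made in full-length or DNA-binding-domain form. These were applied at about 100-200 nM to double-stranded universal all-10-mer Agilent arrays, and bound protein was detected with fluorescent anti-GST. Scans were normalised with masliner before the Universal PBM Analysis Suite assigned E-scores to ungapped eight-base words pooled with their reverse complements.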

| Sequence | PBM E-score |
| --- | --- |
| ATTTAAGC | 0.21 |
| CGAATCCA | 0.102 |
| CTATCCAA | -0.113 |
| AATAAGGG | 0.204 |
| AACATCGG | -0.0538 |
| TCCCTTCA | -0.0728 |
| ACACCCAG | -0.17 |
| AGAGAATA | 0.208 |
| AGTAATTC | 0.235 |
| AGTCGAGC | -0.206 |
| AAACATTG | 0.0783 |
| CACATCGG | -0.141 |
| AGCATCTA | 0.0425 |
| GGCACCTA | -0.188 |
| ATGCTCAG | -0.0117 |
| AGCAGAAA | 0.152 |
| AGAGATGA | -0.0153 |
| AGCGCATG | 0.0393 |
| CATTAGCG | 0.12 |
| CTCAATAC | 0.215 |
| GTTCATGA | 0.109 |
| ACTTTGAC | 0.114 |

| Sequence | PBM E-score |
| --- | --- |
| ATGAAGCA | -0.113 |
| TAGTCCCA | -0.0992 |
| GATTCCTA | -0.156 |
| AACCCAAC | 0.0756 |
| ACTAGAAA | 0.0949 |
| TACGAGCA | -0.0231 |
| GGAGATGA | 0.118 |
| AAACGAAC | 0.132 |
| CGCTACCA | -0.15 |
| CAACACCA | 0.0908 |
| GGTGATGA | 0.125 |
| AACCAGCG | -0.0042 |
| AGGGATAC | -0.027 |
| GGTCAACA | -0.0162 |
| CATTTTGC | 0.178 |
| CATCAACC | 0.203 |
| ACAAACAC | 0.207 |
| CCTTTTCC | -0.0836 |
| GTTGCTGA | 0.163 |
| AGTCGGAT | 0.0774 |
| CGCTATGA | 0.0528 |
| ATGCTAGG | 0.077 |

| Sequence | PBM E-score |
| --- | --- |
| CTCGAGAA | 0.0481 |
| AGTAGTTA | -0.0775 |
| GTAAAACA | 0.0179 |
| GCTGGTAA | -0.0741 |
| CGGCATCA | -0.109 |
| TATAAAAA | 0.265 |
| AGAGGTAG | -0.0107 |
| AAGTCATT | -0.0794 |
| CAATGAGC | -0.0466 |
| CGGCGTCC | 0.0273 |
| AGTCGCCC | -0.121 |
| ACCGCTAC | -0.181 |
| CGAGCCCA | -0.158 |
| TGATCCAA | 0.0224 |
| AAGTACTA | 0.18 |
| AATGACGT | 0.115 |
| ATAGCTAT | -0.106 |
| CATCCGCG | 0.0202 |
| ATTGCGTA | 0.251 |
| AAGTGGCC | -0.137 |
| ACAGCTTA | 0.159 |
| CTTGAAGA | -0.101 |

| Sequence | PBM E-score |
| --- | --- |
| CGTAATGA | 0.241 |
| ATAAGGAT | 0.147 |
| CGAGGGTA | -0.0867 |
| TAATATGA | 0.297 |
| ACTATACA | 0.138 |
| ACGTGAGC | -0.0957 |
| AGACCGTG | -0.0382 |
| ATTCGTGG | 0.012 |
| CTGCGGGA | -0.235 |
| GCCTACAC | -0.00141 |
| GCATCACA | -0.0287 |
| GTCTTGCA | 0.0925 |
| AGCTCGCC | -0.173 |
| AATCTACT | 0.124 |
| GCATCGAA | -0.153 |
| GTCTGACA | -0.0436 |
| ACGCGTCA | 0.122 |
| TAGGACGA | -0.0578 |
| CCGACCGC | -0.315 |
| ACCCAGGG | -0.374 |

Quoted at random: two records from the list.

| Sequence | PBM E-score |
| --- | --- |
| ATTGCGTA | 0.251 |
| GCATCGAA | -0.153 |
